According to US20250177392A1, “BROAD SPECTRUM INHIBITORS OF CYTOMEGALOVIRUS” (MICROBIOTIX, INC., priority 2022, published 2025):
Some results were stated once for a whole list of compounds, not compound by compound.

System: AD169^R
Assay: Virus pre-incubation / washout study
Type: cell-based, Human cytomegalovirus
Details: virus pre-incubated; pre-treatment/no wash-out and pre-treatment/treatment; MBX-4992 10 μM, heparin 50 μg/ml
Procedure: (B) Based on the schematic, AD169^R (MOI 0.2) was pre-incubated with DMSO, MBX-4992, or heparin for one hour before being added to NHDF cells. Virus/compound mix was washed out after 30 minutes as indicated and either unchanged or replaced with media containing DMSO, MBX-4992, or heparin. Virus infection was quantified at 24 hpi GFP fluorescence. Percent infection was normalized to untreated cells.
NHDF cells (10^4) plated overnight in a 96-well plate were incubated at 4° C. for 30 minutes with AD169^R CMV virus pretreated with MBX-4992 (10 μM), Heparin (50 μg/mL) or DMSO for 1 hour at room temperature (in triplicate). For 2/3rd of the samples, media was aspirated and half of the wells received DMSO media, regardless of which drug the virus was exposed to, or MBX-4992 (10 μM), or Heparin (50 μg/mL) overnight. At 18 hpi, the cells were fixed with 4% paraformaldehyde, stained with a rabbit anti-IE1 antibody followed by an anti-rabbit Alexa 647, and analyzed using the Celigo cytometer. The DMSO condition that was not aspirated post binding was set as 100% infection.
To further characterize the mechanism of action, pre-incubation/washout studies were performed using AD169^R and MBX-4992. […] At 18 hpi, cells were immunostained with an anti-IE1 antibody as a readout for infection and quantified using a Celigo cytometer. […]

Compound | decrease of infection [%]
Cc1nc(Nc2ccc(NC(=O)c3ccco3)cc2)cc(N2CCCC2)n1 [MBX-4992] | > 90
heparin [reference compound] | > 90
